The text below walks through data of paper PMC11904942.

Chains of the proteins cited; added tags and fusions are not shown. Lines headed by an entry give the natural chain unless they say otherwise; changes in a name come on top. Residues count along the entry.
UniProt P42568: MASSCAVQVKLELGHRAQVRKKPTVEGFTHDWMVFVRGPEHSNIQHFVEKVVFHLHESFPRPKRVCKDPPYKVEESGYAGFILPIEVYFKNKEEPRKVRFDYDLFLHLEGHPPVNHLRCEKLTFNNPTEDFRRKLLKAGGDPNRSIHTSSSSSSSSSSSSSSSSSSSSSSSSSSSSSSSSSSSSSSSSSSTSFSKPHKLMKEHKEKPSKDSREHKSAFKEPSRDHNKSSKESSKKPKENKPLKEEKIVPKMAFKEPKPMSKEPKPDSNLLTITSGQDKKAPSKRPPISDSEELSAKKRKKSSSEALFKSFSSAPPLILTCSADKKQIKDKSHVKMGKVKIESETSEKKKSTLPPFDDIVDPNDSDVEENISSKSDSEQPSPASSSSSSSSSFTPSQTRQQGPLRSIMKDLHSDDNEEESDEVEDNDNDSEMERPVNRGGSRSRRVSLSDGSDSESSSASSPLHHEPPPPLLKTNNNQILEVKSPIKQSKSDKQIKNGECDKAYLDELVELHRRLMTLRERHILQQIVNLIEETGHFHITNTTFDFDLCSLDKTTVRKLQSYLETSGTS
MLLT3 N-terminus (Flag 1-279): residues 1-279 of P42568
UniProt P09429: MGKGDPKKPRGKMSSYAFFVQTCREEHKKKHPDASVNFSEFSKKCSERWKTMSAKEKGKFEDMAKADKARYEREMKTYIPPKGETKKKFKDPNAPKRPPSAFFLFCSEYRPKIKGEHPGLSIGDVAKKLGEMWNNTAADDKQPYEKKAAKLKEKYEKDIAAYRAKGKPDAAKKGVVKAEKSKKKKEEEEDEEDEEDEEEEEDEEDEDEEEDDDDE
UniProt P67809: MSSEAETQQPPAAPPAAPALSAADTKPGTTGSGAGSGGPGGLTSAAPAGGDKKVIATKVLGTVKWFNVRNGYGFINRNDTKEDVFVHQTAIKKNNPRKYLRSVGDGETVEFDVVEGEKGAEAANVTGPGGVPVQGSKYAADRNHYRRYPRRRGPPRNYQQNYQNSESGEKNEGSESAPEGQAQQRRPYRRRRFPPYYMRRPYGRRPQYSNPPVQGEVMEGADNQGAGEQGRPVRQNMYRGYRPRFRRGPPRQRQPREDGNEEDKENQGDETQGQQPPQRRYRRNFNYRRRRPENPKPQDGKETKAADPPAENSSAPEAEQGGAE

Assay [1] deals with MLLT3 as partner in the co-IP assays (construct and tag not stated) (human) (UniProt P42568). The assay can be described thus: co-IP; exogenous Co-IP with Flag-tagged truncations of MLLT3, HMGB1 and YBX1 (Figures 4F, 6A); cells not given.
For assay [2], the target named is Flag-MLLT3 (Myeloid/Lymphoid Or Mixed-Lineage Leukemia; Translocated To, 3), full length (human) (UniProt P42568). The description is as above.
Assay [3] deals with MLLT3 N-terminus (Flag 1-279) (human) (UniProt P42568). The assay is described as above.
In assay [4] the target is MLLT3 as partner in the co-IP assays (construct and tag not stated) (human) (UniProt P42568). The assay can be described thus: co-IP; whole proteins (Figures 4D, S6E); Thermo Scientific co-IP kit 88805; pre-cleared cell lysate incubated with A/G agarose beads coupled to HMGB1 and MLLT3 antibodies; Western blot.

These are yes or no findings as the source states them, for the method shown. In cells and extracts the contact can be indirect. Some entries that bind do so weakly or less than the wild type.

Take “HMGB1 C-terminus (Flag 111-215) (from UniProt P09429 111-215) (domain or fragment)”: in assay [1], the binding entry is “binds”. Take “HMGB1 as partner in the co-IP assays (construct and tag not stated) (from UniProt P09429 1-215)”: the binding entry in assay [2], in assay [3] and in assay [4] was “binds” in each case.

Consider “YBX1 N-terminus (Flag 1-160) (from UniProt P67809 1-160) (domain or fragment)”, for which the binding entry in assay [1] is listed as “binds”. For “YBX1 as partner in the co-IP assays (construct and tag not stated) (from UniProt P67809 1-324)”, the binding result in assay [3] and in assay [4] was “binds” each time.
